{"source": "patent US20260364098A1", "about": "“HETEROARYL COMPOUNDS AS ENDOCANNABINOID SYSTEM MODULATORS AND USES THEREOF” (Northeastern University, priority 2023, published 2026)", "key": {"human CB1 (hCB1)": {"target": "human CB1 (hCB1) (Homo sapiens, UniProt P21554)", "experiment": "Competition binding assay, [3H]CP55,940 displacement, hCB1 HEK293 membranes", "conditions": "up to 100 nM; [3H]CP55,940 0.7 nM; 37 °C, 60 min", "experimental": "(§1) Cell membrane preparation. Fresh or frozen HEK293 cell pellets (2×10^8 cells expressing human CB1 (hCB1) or rat CB1 (rCB1)) were resuspended in 5 ml of TME [25 mM Tris, 5 mM MgCl2, 1 mM EDTA pH 7.4] supplemented with 0.5% protease inhibitor cocktail (Sigma, St Louis, MO, USA). Cells were lysed under nitrogen cavitation for 30 min at 1000 psi on ice, centrifuged at 1000 g for 10 min, and the supernatant was collected. The pellet was washed three times with 10 ml of TME containing protease inhibitors and the combined supernatant was centrifuged at 100,000 g for 45 min at 4 °C. The resultant membrane pellet was used immediately or stored at −80 °C. Protein concentration for the resulting membrane fraction was obtained using Bradford Assay.\nCompetition Binding Assay. Competition binding assays were performed in a 96-well format. Assays were carried out using [3H] CP55,940 and Tris binding buffer (50 mM Tris-HCl, 50 mM Tris-base, 0.1% BSA, pH 7.4), up to a total assay volume of 500 μL. The concentration of [^3H]CP55,940 used in our displacement assays was 0.7 nM. […] Radioactivity was quantified by liquid scintillation spectrometry. […] Ki values were determined by fitting the data to non-linear regression curve using Graph Pad Prism software."}, "CB1": {"system": "CB1", "experiment": "Saturation binding assay with [3H]CP55940, membranes from rat brain or HEK293 overexpressing hCB1", "parameters": "species or system rat or human", "conditions": "[3H]CP55940 1.58 to 50 nM, 30 °C, 1 h", "experimental": "as §1\nSaturation Binding Assay. Saturation-binding assays were performed in a 96-well format. Membrane preparations either from rat brain or HEK293 cells overexpressing hCB1 were resuspended in TME-bovine serum albumin (BSA; TME containing 0.1% BSA) and 25 ug of protein was added to each assay well. [^3H]CP55940 was diluted in TME-BSA to yield ligand concentrations ranging from 1.58 to 50 nM. […] Bound radioactivity was quantitated in a Packard Top Count Scintillation Counter. Nonspecific binding was subtracted from the total bound radioactivity to calculate specific binding of [^3H] […]"}, "hCB1 receptors": {"target": "hCB1 receptors (Homo sapiens, UniProt P21554)", "experiment": "CB1 cAMP assay (inhibition of forskolin-stimulated cAMP accumulation)", "format": "cell-based", "conditions": "read-out: EC50 of 2-AG + Compound (1 μM); 2-AG in presence of 1 μM compound; forskolin 2 μM; HEK293 and/or CHO hCB1"}}, "note": "pEC50: −log10 of the molar value. The match of structure and compound is tentative."}
{"smiles": "Nc1ccc(-c2[nH]c3ccccc3c2C(C[N+](=O)[O-])c2ccc(B(O)O)cc2)cc1", "note": "(stereo not drawn)", "values": [{"measurement": "competition with CP-55,940", "setting": "human CB1 (hCB1)", "result": "do not compete with CP-55,940"}, {"measurement": "increase in the Bmax of CP-55,940", "setting": "CB1", "result": 45, "unit": "%"}, {"measurement": "pEC50", "setting": "hCB1 receptors", "result": 7.18}]}
